Measured values as given in patent publication US20120328616A1.

Legend:
[1] = target: human FGFR1c/human β-Klotho complex (FGF21 receptor) (human); assay: flow cytometry, transfected HEK293T
[2] = target: cynomologous monkey FGFR1c/cynomologous monkey β-Klotho (co-transfected) (cynomologous monkey); assay: flow cytometry, transfected HEK293T

B1: 49G3.3 (antibody, V domains shown)
VH: QVTLKESGPVLVKPTETLTLTCTVSGFSLSNPRMGVSWIRQPPGKALEWLTHIFSNDEKSYSTSLKSRLTISKDTSKSQVVLSMTNMDPVDTATYYCVRVDTLNYHYYGMDVWGQGTTVTVSS
VL: DIQMTQSPSSLSASIGDRVTITCQASQGISNYLNWYQQKPGKAPKLLIYDASNLETGVPSRFSGSGSGTDFTFTISSLQPEDIATYYCHQYDDLPLTFGGGTKVEIRR
For B1, the binding [1] was “binds” and the binding [2] was “binds”.

These are yes or no findings as the source states them, for the method shown. Binding can be weak; no strength is given.
